This is one part of the list.
Compound: CC1Cc2ccccc2N1C(=O)C1CCCN(C1)C(=O)CCl (mixture of isomers) [TRIM25 ligand 11 (diastereomer mixture)]
Test: probe-labelled cysteine peptide fold change vs DMSO (competition) (log2 fold change); higher = less target engagement (more negative = stronger competition)
Details: THP-1, incubation time: 4 h
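Also: competitive chemoproteomic profiling in live THP-1 cells with an iodoacetamide desthiobiotin (IA-DTB) probe, comparing probe-labelled peptide intensities in compound-treated cells against DMSO-treated controls.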

Amino acid sequences for entries named in this document (tags omitted). A change or cut given only in a name is not applied to a line headed by its entry.
UniProt Q9UQ80: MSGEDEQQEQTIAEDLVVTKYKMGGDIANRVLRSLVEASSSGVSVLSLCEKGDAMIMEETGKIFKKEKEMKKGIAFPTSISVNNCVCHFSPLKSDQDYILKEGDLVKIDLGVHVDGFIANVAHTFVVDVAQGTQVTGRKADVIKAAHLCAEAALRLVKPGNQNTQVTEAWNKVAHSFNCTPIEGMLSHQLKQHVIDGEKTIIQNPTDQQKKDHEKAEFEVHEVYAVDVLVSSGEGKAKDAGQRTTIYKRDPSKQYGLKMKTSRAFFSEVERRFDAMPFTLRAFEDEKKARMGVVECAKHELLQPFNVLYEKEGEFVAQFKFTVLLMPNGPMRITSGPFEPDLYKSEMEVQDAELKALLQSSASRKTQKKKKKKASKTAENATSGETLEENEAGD
UniProt Q9BY11: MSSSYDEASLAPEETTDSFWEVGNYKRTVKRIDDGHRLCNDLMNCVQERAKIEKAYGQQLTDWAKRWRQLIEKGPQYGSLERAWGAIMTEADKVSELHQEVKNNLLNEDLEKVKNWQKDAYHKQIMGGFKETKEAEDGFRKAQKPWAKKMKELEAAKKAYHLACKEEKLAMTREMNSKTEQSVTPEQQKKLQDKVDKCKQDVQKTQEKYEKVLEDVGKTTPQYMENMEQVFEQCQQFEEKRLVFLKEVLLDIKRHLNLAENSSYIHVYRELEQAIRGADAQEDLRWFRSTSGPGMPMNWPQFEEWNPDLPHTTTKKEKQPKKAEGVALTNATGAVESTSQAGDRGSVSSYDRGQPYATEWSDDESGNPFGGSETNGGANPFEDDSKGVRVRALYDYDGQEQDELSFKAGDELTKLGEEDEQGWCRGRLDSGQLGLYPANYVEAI
UniProt Q92882: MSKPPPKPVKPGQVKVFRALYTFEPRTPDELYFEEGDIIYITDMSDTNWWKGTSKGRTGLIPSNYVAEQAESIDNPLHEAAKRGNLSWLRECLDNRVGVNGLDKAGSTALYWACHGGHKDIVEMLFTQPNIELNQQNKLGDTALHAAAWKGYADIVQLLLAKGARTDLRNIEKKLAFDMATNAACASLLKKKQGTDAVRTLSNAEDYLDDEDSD
UniProt Q8N6M0: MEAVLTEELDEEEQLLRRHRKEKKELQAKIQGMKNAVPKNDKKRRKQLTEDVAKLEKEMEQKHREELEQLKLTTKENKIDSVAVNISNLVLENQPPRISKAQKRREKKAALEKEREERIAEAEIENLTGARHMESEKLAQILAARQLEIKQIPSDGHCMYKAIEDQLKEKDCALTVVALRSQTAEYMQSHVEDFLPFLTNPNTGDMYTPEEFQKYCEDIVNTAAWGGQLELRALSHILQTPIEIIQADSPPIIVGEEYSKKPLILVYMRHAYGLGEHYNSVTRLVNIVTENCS
UniProt Q96FW1, whole entry, looked up: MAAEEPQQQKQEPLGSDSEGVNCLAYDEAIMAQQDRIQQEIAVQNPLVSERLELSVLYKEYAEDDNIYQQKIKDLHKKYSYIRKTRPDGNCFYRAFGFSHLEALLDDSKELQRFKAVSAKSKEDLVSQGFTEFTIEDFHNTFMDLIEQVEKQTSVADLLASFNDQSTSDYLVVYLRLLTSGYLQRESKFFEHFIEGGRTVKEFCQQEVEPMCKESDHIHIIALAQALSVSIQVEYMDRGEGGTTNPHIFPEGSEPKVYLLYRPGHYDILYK
UniProt Q504Q3: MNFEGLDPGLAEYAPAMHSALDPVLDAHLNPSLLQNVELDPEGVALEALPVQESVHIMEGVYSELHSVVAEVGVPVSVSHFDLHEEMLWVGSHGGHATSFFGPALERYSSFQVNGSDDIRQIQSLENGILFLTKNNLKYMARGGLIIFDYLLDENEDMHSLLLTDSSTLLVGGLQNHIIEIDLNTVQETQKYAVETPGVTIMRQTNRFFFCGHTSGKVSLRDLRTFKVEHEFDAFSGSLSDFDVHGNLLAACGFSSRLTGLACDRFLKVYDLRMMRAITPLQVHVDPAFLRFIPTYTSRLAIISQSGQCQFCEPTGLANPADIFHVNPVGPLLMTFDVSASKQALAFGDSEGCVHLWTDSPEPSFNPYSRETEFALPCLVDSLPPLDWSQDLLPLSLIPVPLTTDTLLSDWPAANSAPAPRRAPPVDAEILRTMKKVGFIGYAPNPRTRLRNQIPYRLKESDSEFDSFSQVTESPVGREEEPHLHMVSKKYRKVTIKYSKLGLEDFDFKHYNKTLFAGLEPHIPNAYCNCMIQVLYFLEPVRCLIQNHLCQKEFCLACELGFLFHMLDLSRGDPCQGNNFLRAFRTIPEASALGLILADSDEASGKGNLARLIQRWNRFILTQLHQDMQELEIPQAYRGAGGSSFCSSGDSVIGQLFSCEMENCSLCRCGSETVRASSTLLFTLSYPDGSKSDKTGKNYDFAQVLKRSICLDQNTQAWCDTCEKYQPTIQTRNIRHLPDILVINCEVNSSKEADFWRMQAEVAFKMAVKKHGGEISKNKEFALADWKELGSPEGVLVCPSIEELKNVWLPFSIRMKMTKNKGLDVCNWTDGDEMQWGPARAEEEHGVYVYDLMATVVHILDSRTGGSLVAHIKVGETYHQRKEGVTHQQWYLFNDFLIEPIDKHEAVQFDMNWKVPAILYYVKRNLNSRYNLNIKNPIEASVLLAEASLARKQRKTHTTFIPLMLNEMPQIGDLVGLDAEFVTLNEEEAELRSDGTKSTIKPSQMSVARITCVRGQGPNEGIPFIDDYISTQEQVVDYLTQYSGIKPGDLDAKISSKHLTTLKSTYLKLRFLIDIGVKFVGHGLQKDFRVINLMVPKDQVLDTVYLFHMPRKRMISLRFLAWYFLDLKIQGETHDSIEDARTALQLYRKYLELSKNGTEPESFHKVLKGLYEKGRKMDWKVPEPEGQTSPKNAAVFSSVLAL
UniProt P22234: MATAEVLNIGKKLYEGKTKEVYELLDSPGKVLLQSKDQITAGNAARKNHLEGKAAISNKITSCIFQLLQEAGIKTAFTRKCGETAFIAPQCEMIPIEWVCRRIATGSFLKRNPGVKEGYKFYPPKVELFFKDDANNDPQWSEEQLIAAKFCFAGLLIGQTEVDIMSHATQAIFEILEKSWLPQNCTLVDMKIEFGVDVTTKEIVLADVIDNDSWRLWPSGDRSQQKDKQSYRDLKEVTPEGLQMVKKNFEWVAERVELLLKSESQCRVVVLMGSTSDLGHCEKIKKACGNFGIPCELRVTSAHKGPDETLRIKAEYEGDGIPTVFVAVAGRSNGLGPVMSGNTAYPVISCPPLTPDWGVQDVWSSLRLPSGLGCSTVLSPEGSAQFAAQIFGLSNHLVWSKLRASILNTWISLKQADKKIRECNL
UniProt Q8TEW0: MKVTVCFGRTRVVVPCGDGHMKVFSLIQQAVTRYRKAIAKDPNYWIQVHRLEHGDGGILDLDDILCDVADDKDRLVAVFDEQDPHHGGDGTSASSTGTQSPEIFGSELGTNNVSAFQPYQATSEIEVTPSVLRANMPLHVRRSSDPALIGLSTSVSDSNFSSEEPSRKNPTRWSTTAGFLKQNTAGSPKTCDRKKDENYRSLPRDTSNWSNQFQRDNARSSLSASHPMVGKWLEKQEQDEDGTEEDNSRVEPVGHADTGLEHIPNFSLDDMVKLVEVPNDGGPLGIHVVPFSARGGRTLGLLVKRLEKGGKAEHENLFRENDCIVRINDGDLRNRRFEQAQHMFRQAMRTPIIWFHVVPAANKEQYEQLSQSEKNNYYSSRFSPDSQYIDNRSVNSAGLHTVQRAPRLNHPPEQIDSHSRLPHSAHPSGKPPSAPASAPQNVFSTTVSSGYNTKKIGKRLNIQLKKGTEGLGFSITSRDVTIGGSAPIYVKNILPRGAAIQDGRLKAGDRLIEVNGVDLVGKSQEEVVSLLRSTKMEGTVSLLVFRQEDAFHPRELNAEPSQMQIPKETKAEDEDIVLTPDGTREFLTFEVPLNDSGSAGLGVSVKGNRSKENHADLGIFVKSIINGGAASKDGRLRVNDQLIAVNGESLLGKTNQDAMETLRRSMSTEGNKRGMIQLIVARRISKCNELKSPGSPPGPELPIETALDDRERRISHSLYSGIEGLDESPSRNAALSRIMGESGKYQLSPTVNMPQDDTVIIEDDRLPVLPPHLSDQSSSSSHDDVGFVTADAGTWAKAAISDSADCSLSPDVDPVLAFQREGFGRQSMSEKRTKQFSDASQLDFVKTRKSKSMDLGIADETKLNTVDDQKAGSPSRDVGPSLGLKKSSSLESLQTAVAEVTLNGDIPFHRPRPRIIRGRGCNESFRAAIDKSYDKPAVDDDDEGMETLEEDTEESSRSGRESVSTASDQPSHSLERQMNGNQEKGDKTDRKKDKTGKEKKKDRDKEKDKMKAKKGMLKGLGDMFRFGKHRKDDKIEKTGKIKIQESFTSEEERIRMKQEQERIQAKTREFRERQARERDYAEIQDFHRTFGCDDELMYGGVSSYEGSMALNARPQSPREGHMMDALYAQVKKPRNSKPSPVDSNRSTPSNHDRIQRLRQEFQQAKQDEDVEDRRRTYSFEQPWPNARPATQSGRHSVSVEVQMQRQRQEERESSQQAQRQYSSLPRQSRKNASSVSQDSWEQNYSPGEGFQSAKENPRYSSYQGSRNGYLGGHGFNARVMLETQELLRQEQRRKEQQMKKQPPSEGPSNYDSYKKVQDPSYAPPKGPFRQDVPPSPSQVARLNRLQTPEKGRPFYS
UniProt P07237: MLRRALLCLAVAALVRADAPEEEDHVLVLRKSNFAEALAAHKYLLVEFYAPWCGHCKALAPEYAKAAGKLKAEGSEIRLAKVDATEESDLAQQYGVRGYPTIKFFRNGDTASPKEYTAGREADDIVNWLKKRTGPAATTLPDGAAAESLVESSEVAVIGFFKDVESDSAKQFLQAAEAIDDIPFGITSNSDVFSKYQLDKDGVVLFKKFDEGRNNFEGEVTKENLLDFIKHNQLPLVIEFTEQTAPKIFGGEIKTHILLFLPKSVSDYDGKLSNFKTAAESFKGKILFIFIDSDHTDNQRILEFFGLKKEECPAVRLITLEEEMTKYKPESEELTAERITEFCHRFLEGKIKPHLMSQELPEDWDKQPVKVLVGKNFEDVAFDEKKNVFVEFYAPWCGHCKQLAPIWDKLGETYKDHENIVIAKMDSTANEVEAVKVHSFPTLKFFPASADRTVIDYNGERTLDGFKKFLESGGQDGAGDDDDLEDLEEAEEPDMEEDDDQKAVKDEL
UniProt O15294: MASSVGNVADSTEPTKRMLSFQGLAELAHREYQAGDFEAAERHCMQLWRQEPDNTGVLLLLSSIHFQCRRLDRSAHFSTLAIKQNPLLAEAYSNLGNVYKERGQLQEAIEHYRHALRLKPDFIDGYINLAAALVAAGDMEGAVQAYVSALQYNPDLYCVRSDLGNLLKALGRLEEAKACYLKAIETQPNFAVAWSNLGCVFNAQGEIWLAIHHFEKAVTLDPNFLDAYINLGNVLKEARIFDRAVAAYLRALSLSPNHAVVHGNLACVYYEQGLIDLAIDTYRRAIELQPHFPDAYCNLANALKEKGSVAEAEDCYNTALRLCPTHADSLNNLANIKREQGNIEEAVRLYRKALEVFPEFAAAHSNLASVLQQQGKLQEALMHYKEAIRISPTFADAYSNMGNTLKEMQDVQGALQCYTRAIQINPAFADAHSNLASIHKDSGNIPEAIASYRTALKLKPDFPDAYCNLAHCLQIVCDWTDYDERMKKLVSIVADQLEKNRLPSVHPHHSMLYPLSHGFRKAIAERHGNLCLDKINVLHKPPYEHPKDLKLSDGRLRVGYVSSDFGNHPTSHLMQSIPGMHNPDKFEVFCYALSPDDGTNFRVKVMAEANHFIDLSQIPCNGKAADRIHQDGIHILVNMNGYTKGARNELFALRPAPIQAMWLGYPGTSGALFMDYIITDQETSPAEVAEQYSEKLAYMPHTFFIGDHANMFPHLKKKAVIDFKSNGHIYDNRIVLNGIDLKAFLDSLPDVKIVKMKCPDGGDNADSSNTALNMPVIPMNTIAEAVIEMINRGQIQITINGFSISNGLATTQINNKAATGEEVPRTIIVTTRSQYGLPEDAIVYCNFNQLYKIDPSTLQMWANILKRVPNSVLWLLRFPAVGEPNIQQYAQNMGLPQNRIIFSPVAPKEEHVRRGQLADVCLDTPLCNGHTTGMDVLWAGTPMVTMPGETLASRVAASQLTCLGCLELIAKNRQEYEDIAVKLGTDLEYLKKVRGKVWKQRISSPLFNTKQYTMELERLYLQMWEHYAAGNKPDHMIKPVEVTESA
UniProt Q99571: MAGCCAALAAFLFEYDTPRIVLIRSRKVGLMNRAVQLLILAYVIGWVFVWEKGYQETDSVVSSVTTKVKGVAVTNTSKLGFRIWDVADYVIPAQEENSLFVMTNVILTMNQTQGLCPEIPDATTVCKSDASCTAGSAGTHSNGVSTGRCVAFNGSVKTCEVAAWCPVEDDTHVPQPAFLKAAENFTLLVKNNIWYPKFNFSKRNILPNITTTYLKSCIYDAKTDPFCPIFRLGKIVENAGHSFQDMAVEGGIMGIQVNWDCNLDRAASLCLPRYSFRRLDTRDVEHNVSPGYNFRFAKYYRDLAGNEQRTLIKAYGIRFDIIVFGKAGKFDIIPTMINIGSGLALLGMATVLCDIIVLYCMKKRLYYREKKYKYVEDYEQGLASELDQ

Target | probe-labelled cysteine peptide fold change (10 µM) | probe-labelled cysteine peptide fold change (50 µM)
PA2G4_Q9UQ80_87_GIAFPTSISVNNCVCHFSPLK (UniProt Q9UQ80) | 0.21 | -0.184
PARP12_Q9H0J9_85_AHQGSKPGCVGLCAQLHLCR (UniProt Q9H0J9) | -0.0721 | 0.28
OSGEPL1_Q9H4B0_216_HPECSTMSGGK (UniProt Q9H4B0) | 0.187 | 0.00379
P4HA2_O15460_504_HAACPVLVGCK (UniProt O15460) | -0.0239 | -0.0166
PARP10_Q53GL7_983_YDSAVDCICQPSIFVIFHDTQALPTHLITCEHVPR (UniProt Q53GL7) | -0.165 | -0.502
PACSIN1_Q9BY11_424_LGEEDEQGWCR (UniProt Q9BY11) | 0.116 | 0.235
OSBPL3_Q9H4L5_718_NLHDDSCYCK (UniProt Q9H4L5) | 0.205 | 0.232
OSTF1_Q92882_185_LAFDMATNAACASLLK (UniProt Q92882) | 0.0162 | -0.00932
OTUD6B_Q8N6M0_172_DCALTVVALR (UniProt Q8N6M0) | 0.0318 | 0.00252
OTUB1_Q96FW1_91_KTRPDGNCFYR (UniProt Q96FW1) | -0.383 | -0.417
ORC3_Q9UBD5_561_ENVVNFIDCLVR (UniProt Q9UBD5) | 0.112 | 0.23
PAN2_Q504Q3_798_ELGSPEGVLVCPSIEELK (UniProt Q504Q3) | -0.158 | -0.174
PAICS_P22234_63_ITSCIFQLLQEAGIK (UniProt P22234) | 0.182 | -0.306
OSBPL1A_Q9BXW6_171+182_TTELTALLNRPNPPDVNCSDQLGNTPLHCAAYR (UniProt Q9BXW6) | 0.121 | -0.0218
OSBPL1A_Q9BXW6_711_GTITLELLEHNEAYTWTNPTCCVHNIIVGK (UniProt Q9BXW6) | 0.129 | 0.152
OTUB1_Q96FW1_91_TRPDGNCFYR (UniProt Q96FW1) | -0.204 | -0.0617
PARD3_Q8TEW0_66_LEHGDGGILDLDDILCDVADDK (UniProt Q8TEW0) | 0.204 | 0.123
P4HB_P07237_312_ILEFFGLKKEECPAVR (UniProt P07237) | -0.567 | -0.501
PAK2_Q13177_352_ECLQALEFLHANQVIHR (UniProt Q13177) | 0.0134 | 0.223
PAK1IP1_Q9NWT1_288_KVPPSLLCEINTNAR (UniProt Q9NWT1) | -0.0366 | 0.0998
PAIP1_Q9H074_318_ELLNALFSNPMDDNLICAVK (UniProt Q9H074) | -0.0771 | -0.0378

As entered above:
Value of PACSIN1_Q9BY11_424_LGEEDEQGWCR (UniProt Q9BY11) under probe-labelled cysteine peptide fold change (10 µM): 0.116
Value of PAN2_Q504Q3_798_ELGSPEGVLVCPSIEELK (UniProt Q504Q3) under probe-labelled cysteine peptide fold change (10 µM): -0.158

Remaining list, next part:

Target | probe-labelled cysteine peptide fold change (10 µM) | probe-labelled cysteine peptide fold change (50 µM)
PA2G4_Q9UQ80_49_SLVEASSSGVSVLSLCEK (UniProt Q9UQ80) | -0.139 | -0.0484
OSBPL1A_Q9BXW6_387_ECDMAK (UniProt Q9BXW6) | -0.199 | -0.186
PABPN1_Q86U42_195_SIYVGNVDYGATAEELEAHFHGCGSVNR (UniProt Q86U42) | -0.00532 | 0.104
PALD1_Q9ULE6_617_ACPGLTYHR (UniProt Q9ULE6) | 0.124 | 0.0845
PARD3_Q8TEW0_66_LEHGDGGILDLDDILCDVADDKDR (UniProt Q8TEW0) | -0.0709 | -0.256
OGT_O15294_323_LCPTHADSLNNLANIKR (UniProt O15294) | 0.00173 | -0.00169
PAICS_P22234_100_CGETAFIAPQCEMIPIEWVCR (UniProt P22234) | 0.00496 | 0.1
OTUD6B_Q8N6M0_158_QIPSDGHCMYK (UniProt Q8N6M0) | -0.0851 | -0.109
PA2G4_Q9UQ80_179_VAHSFNCTPIEGMLSHQLK (UniProt Q9UQ80) | -0.0816 | -0.123
OTULIN_Q96BN8_215_QIACDELFTNEAEEYSLYEAVK (UniProt Q96BN8) | -0.114 | 0.229
OSBPL8_Q9BZF1_575_LTFLNRGEDYVMTMPYAHCK (UniProt Q9BZF1) | -0.349 | 0.141
OSBPL1A_Q9BXW6_289_HLTQAVCTVK (UniProt Q9BXW6) | 0.0658 | -0.122
P2RX4_Q99571_132_SDASCTAGSAGTHSNGVSTGR (UniProt Q99571) | 0.113 | -0.224
OGT_O15294_315_GSVAEAEDCYNTALR (UniProt O15294) | -0.107 | -0.0543
PAFAH1B3_Q15102_205_LGYTPVCR (UniProt Q15102) | 0.00158 | -0.00455
P2RX4_Q99571_227_TDPFCPIFR (UniProt Q99571) | 0.0247 | 0.0728
OSBPL1A_Q9BXW6_303_CFDDTIHGFR (UniProt Q9BXW6) | 0.003 | 0.0976
P4HB_P07237_397+400_NVFVEFYAPWCGHCK (UniProt P07237) | -0.122 | -0.34
OPLAH_O14841_382_SGLFVVGPESAGAHPGPACYR (UniProt O14841) | 0.0731 | 0.0631
PACSIN2_Q9UNF0_465_MEDEDEQGWCK (UniProt Q9UNF0) | 0.118 | 0.00577
OSBPL5_Q9H0X9_233_CWLDALELALR (UniProt Q9H0X9) | -0.146 | -0.165
